# From the supplement of paper PMC10849652
# The chains behind the UniProt entries cited, without tags or fusion partners. Where a name states a change or a piece, a line headed by the entry shows the natural chain unless it says otherwise.
# UniProt Q92968: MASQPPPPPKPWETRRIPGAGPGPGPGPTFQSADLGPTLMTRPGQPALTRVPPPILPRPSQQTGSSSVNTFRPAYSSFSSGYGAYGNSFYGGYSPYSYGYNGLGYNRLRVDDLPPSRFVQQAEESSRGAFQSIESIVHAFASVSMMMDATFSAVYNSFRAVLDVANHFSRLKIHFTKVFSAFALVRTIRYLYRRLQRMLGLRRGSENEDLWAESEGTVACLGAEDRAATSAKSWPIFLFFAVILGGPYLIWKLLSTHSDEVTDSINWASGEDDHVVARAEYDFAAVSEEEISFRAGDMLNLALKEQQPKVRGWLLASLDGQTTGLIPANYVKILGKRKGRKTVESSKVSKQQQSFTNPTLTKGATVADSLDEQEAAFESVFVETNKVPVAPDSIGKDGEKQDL
# UniProt P61457: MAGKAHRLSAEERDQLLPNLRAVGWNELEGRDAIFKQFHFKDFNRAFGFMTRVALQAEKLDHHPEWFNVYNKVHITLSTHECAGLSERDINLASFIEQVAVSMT
# UniProt O95453: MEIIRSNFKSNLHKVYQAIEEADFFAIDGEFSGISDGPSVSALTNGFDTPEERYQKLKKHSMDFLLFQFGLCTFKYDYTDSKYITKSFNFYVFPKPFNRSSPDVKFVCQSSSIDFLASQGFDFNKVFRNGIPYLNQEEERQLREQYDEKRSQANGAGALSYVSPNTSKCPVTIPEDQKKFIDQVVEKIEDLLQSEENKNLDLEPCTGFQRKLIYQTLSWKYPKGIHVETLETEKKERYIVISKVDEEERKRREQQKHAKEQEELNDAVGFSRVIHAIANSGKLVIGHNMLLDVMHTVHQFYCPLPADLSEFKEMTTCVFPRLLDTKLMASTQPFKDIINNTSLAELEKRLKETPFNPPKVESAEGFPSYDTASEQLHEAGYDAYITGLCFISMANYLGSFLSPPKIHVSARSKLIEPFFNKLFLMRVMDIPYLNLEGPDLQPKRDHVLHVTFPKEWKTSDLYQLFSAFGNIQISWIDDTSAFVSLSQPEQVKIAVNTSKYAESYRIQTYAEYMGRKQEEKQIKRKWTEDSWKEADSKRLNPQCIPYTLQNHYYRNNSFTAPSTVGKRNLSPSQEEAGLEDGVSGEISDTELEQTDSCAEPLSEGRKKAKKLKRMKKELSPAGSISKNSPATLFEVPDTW
# UniProt Q9BUL8: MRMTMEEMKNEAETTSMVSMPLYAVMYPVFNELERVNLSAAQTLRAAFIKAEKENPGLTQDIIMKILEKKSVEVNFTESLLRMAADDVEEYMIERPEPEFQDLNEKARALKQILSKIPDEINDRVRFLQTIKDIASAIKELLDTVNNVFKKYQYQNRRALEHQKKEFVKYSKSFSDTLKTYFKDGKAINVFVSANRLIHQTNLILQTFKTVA
# UniProt Q9H2J4: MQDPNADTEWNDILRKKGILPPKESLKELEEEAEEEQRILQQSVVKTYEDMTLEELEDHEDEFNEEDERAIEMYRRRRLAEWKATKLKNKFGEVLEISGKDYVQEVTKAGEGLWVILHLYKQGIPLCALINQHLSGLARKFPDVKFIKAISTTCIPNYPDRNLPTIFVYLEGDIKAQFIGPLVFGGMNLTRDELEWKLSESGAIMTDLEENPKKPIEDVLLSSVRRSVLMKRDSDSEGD
# UniProt Q9HBH1: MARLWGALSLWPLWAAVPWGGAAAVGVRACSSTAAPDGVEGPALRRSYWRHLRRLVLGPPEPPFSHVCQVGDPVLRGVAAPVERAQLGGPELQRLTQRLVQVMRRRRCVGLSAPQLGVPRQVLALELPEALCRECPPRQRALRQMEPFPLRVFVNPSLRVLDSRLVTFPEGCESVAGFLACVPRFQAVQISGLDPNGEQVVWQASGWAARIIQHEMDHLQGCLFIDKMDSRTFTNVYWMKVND
# UniProt Q96GD0: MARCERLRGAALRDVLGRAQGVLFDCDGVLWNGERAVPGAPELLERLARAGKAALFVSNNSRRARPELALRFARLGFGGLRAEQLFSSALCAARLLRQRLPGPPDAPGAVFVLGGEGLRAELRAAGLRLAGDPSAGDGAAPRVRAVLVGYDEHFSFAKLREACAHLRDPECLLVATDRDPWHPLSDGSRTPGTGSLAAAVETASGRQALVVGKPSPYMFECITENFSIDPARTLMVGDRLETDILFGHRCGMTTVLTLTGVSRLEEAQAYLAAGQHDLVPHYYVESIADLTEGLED
# UniProt Q6L8Q7: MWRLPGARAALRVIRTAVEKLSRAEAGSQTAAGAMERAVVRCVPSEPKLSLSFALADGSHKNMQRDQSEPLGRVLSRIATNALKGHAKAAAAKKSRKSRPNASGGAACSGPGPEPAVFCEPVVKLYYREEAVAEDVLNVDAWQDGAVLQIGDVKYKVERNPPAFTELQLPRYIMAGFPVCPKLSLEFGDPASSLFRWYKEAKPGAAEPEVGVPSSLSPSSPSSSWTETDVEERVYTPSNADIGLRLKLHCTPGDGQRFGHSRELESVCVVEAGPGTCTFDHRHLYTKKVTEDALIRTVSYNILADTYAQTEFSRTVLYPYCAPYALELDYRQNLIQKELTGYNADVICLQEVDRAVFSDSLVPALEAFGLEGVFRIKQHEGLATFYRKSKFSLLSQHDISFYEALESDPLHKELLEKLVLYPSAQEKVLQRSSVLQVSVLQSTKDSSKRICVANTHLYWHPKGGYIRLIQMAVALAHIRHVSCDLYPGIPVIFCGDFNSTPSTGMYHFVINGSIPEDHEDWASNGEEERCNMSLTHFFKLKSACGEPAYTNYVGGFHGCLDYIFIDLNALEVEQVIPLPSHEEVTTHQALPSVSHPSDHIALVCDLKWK
# UniProt Q8N5Y8: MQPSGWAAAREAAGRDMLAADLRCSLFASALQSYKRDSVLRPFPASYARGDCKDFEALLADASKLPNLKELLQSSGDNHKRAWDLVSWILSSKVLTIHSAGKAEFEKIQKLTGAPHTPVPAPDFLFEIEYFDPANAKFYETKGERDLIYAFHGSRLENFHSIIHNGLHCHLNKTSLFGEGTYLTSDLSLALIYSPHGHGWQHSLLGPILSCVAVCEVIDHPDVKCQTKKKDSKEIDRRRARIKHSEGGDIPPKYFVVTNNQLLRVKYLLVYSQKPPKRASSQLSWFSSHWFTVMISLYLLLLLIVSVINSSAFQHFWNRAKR
# UniProt Q16342: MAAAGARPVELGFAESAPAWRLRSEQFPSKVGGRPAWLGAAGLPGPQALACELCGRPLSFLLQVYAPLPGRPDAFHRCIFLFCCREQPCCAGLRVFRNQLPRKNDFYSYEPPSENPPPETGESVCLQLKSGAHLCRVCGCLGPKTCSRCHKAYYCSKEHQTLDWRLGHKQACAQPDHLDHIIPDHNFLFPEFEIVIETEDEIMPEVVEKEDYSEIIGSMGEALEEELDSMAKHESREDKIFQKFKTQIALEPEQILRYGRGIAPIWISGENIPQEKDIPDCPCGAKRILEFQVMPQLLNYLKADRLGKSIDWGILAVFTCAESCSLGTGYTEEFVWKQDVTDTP
# UniProt Q8WUM4: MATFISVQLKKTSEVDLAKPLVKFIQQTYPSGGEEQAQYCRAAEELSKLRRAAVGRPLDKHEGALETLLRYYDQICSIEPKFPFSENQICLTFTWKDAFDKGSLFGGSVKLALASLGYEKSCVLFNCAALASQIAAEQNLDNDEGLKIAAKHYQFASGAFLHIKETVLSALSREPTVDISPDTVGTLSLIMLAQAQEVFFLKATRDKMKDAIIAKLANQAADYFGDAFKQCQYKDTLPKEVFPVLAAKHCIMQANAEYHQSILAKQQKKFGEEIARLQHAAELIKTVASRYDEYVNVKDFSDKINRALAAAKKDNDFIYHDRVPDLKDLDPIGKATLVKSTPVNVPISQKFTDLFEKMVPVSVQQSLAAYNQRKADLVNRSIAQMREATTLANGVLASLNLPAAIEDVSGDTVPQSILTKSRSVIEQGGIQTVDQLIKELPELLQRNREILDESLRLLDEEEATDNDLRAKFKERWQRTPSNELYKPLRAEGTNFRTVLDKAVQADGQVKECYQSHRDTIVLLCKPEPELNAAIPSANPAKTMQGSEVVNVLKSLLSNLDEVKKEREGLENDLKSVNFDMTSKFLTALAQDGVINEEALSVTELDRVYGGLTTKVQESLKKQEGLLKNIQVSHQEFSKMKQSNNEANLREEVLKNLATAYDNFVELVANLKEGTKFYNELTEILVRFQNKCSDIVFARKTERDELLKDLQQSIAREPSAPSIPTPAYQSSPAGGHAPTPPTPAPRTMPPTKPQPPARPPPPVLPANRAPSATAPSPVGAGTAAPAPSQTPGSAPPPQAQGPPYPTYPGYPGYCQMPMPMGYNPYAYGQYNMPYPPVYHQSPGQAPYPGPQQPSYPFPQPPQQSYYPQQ
# UniProt Q15366, whole entry, looked up: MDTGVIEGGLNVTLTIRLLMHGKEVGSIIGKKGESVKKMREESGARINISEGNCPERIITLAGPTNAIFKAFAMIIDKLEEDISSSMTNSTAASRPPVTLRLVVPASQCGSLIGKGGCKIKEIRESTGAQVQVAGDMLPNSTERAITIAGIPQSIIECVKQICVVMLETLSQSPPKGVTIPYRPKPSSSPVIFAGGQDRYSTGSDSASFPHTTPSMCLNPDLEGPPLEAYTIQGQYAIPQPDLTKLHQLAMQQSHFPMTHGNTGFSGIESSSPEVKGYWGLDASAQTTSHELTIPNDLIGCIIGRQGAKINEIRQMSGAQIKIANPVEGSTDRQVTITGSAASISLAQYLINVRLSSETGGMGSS
# UniProt O15212, whole entry, looked up: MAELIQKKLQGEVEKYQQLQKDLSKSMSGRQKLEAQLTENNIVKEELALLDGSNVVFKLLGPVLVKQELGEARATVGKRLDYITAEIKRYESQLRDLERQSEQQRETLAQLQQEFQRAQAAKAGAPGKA
# UniProt Q9NTI5: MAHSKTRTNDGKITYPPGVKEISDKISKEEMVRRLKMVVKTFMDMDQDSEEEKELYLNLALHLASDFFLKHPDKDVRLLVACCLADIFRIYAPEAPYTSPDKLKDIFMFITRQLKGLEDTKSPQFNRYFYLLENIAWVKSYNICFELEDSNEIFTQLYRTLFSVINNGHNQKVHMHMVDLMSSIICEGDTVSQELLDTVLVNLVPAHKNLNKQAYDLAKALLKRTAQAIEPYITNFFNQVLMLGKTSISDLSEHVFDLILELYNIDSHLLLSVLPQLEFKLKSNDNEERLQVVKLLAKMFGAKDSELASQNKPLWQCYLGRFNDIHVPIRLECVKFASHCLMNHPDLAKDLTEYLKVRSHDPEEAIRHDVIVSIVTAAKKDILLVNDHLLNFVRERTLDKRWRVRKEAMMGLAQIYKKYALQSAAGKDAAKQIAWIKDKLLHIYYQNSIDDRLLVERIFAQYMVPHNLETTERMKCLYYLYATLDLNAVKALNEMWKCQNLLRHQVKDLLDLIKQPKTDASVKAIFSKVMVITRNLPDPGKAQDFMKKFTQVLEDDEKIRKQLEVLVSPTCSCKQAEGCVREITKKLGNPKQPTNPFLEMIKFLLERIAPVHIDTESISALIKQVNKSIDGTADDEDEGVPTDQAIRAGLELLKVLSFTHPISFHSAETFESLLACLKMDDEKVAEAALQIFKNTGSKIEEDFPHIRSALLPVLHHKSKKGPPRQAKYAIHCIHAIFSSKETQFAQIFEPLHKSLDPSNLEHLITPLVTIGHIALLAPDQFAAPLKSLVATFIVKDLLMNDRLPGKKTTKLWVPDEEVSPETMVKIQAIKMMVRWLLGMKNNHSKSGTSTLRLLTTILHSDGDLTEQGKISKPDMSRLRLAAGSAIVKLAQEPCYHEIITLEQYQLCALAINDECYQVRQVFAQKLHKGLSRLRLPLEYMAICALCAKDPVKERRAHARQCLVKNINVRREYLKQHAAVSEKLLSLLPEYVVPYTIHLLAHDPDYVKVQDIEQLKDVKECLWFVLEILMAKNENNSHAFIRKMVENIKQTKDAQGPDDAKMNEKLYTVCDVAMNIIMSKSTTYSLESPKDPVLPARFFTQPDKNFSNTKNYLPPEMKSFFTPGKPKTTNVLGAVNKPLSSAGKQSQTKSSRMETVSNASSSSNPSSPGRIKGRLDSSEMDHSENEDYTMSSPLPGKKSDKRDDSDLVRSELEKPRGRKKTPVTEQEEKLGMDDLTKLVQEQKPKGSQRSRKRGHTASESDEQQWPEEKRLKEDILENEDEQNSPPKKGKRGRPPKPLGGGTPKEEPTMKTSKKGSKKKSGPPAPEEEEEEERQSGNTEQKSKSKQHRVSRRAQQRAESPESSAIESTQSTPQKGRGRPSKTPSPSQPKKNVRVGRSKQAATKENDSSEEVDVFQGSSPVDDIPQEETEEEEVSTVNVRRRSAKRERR
# UniProt P30086: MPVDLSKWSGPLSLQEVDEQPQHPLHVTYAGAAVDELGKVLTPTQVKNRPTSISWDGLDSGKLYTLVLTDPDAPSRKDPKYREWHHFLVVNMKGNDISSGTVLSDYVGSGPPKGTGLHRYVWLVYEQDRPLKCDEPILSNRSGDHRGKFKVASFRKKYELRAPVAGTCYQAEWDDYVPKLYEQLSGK
# UniProt Q99471, whole entry, looked up: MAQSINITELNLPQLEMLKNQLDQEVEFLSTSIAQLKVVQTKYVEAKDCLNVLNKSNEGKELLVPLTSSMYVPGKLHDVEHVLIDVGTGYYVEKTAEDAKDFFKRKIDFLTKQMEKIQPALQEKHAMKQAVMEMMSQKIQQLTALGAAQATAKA
# Some of the results follow.
# Compound: CN1CCN(CCOc2cc(OC3CCOCC3)c3c(Nc4c(Cl)ccc5c4OCO5)ncnc3c2)CC1 [saracatinib]
# Experiment: log2 fold change, soluble protein after heating vs DMSO (PISA); higher = thermal stabilisation; K562 lysate, 10 uM; active = over 0.2 and 3.5 SD of the protein, either way, in both replicates (recomputed)
# Method in brief: (§1)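 Following dounce homogenisation of K562 pellets in PBS pH 7.4 with 1 mM MgCl2, crude extract at 1 mg/mL protein was incubated for 30 min with 10 μM compound. Aliquots were then heated for 3 min over 48°C-58°C and pooled, NP-40 was added to 0.5% at 4°C, and soluble protein was recovered as the supernatant at 21,000xg for 90 min. Channel-sum-equalised TMTpro 16plex LC-MS/MS quantified this protein. Each value, from duplicates, is a log-two fold change in thermal stability relative to solvent controls.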
row,Target,log2 fold change
1,PGAM5 (UniProt Q96HS1),inactive: 0.005
2,PEX11B (UniProt O96011),inactive: 0.009
3,PFKL isoform 2 (UniProt P17858),inactive: 0.008
4,PEPD (UniProt P12955),inactive: -0.013
5,PEX13 (UniProt Q92968),inactive: 0.036
6,PCBD1 (UniProt P61457),inactive: 0.022
7,PARN (UniProt O95453),inactive: 0.009
8,PARP2 (UniProt Q9UGN5),inactive: -0.067
9,PELP1 (UniProt Q8IZL8),inactive: 0.089
10,PDCD10 (UniProt Q9BUL8),inactive: 0.016
11,PDXDC1 (UniProt Q6P996),inactive: -0.005
12,PDCL3 (UniProt Q9H2J4),inactive: -0.016
13,PDF (UniProt Q9HBH1),inactive: 0.032
14,PAXIP1 (UniProt Q6ZW49),inactive: -0.01
15,PARP14 (UniProt Q460N5),inactive: 0.119
16,PDXP (UniProt Q96GD0),inactive: 0.003
17,PDE12 (UniProt Q6L8Q7),inactive: -0.026
18,PARP16 isoform 3 (UniProt Q8N5Y8),inactive: 0.021
19,PFAS (UniProt O15067),inactive: -0.013
20,PDPR (UniProt Q8NCN5),inactive: 0.005

# Compound: CN1CCN(c2nc(C3=C(c4c[nH]c5ccccc45)C(=O)NC3=O)c3ccccc3n2)CC1 [sotrastaurin]
# Experiment: as above
# Method in brief: as §1
row,Target,log2 fold change
1,PDCD2 (UniProt Q16342),inactive: -0.052
2,PGAM1 (UniProt P18669),inactive: -0.026
3,PDCD6IP isoform 2 (UniProt Q8WUM4),inactive: 0.003
4,PC (UniProt P11498),inactive: 0.027
5,PCBP2 isoform 3 (UniProt Q15366),inactive: -0.006
6,PCIF1 (UniProt Q9H4Z3),inactive: -0.036
7,PFDN6 (UniProt O15212),inactive: -0.009
8,PCYT1A (UniProt P49585),inactive: 0.005
9,PCBP3 (UniProt P57721),inactive: -0.047
10,PDS5B (UniProt Q9NTI5),inactive: 0.019
11,PEBP1 (UniProt P30086),inactive: -0.024
12,PAXX (UniProt Q9BUH6),inactive: 0.043
13,PFDN5 (UniProt Q99471),inactive: -0.066
14,PGAM5 (UniProt Q96HS1),inactive: -0.002
15,PEX11B (UniProt O96011),inactive: -0.013
16,PFKL isoform 2 (UniProt P17858),inactive: 0.013
17,PEPD (UniProt P12955),inactive: 0.005

row,Target,log2 fold change
1,PEX13 (UniProt Q92968),inactive: 0
2,PCBD1 (UniProt P61457),inactive: 0.044
3,PARN (UniProt O95453),inactive: 0.022
4,PARP2 (UniProt Q9UGN5),inactive: 0.049
5,PELP1 (UniProt Q8IZL8),inactive: 0.024
6,PDCD10 (UniProt Q9BUL8),inactive: 0.04
7,PDXDC1 (UniProt Q6P996),inactive: 0.015
8,PDCL3 (UniProt Q9H2J4),inactive: 0.009
9,PDF (UniProt Q9HBH1),inactive: -0.02
10,PAXIP1 (UniProt Q6ZW49),inactive: 0.038
11,PARP14 (UniProt Q460N5),inactive: -0.058
12,PDXP (UniProt Q96GD0),inactive: -0.044
13,PDE12 (UniProt Q6L8Q7),inactive: -0.02
14,PARP16 isoform 3 (UniProt Q8N5Y8),inactive: 0.007
15,PFAS (UniProt O15067),inactive: -0.015
16,PDPR (UniProt Q8NCN5),inactive: -0.007
